Values from PubChem BioAssay AID1259268 (Sanger Institute, 2017).
The whole screen tested 160 reagents; shown is a part drawn at random. 58 of all reagents (36%) were called active. 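Trametinib by itself roughly halved viability, making its arm harsher than the cetuximab and BYL719 arms.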 The numbers tell different reagents against one gene apart. Further read-outs or replicates are left out here. Not given: the amount of reagent, the time to read-out.

Aim: 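Kinase knock-downs that boost killing of colorectal cancer cells by targeted drugs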 (follow-up of hits)
Cells: human SNUC1 colorectal cancer cells
Reagents: single siRNA against human genes
Challenge: anchor drugs added a day after transfection: BYL719 1 µM, cetuximab 5 µg/ml or trametinib 10 nM, versus DMSO vehicle
Detection: 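Mean viability per well relative to non-targeting pool 2 siRNA, plus a synergy score weighing the joint knock-down and drug effect against each effect alone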
Direction: synergy score with trametinib and synergy score with cetuximab and synergy score with BYL719: higher = stronger synergy of knock-down with drug
Active means: 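Inactive when no drug gives a synergy score over 0.1, otherwise active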
Meaning of the calls: active = synergy with at least one drug; inactive = no synergy with any drug

AK2 #1: synergy score with trametinib = 0.204; synergy score with cetuximab = -0.00444; synergy score with BYL719 = 0.044; outcome = active
AK2 #2: synergy score with trametinib = 0.198; synergy score with cetuximab = -0.0663; synergy score with BYL719 = -0.23; outcome = active
AK2 #3: synergy score with trametinib = -0.0435; synergy score with cetuximab = -0.0567; synergy score with BYL719 = -0.23; outcome = inactive
AK2 #4: synergy score with trametinib = 0.292; synergy score with cetuximab = 0.0236; synergy score with BYL719 = -0.172; outcome = active
GUCY2D #1: synergy score with trametinib = 0.0656; synergy score with cetuximab = -0.0272; synergy score with BYL719 = -0.177; outcome = inactive
GUCY2D #2: synergy score with trametinib = 0.112; synergy score with cetuximab = -0.11; synergy score with BYL719 = -0.106; outcome = active
GUCY2D #3: synergy score with trametinib = -0.0245; synergy score with cetuximab = -0.182; synergy score with BYL719 = -0.159; outcome = inactive
GUCY2D #4: synergy score with trametinib = 0.0405; synergy score with cetuximab = -0.0622; synergy score with BYL719 = -0.23; outcome = inactive
RPS6KA4 #1: synergy score with trametinib = 0.124; synergy score with cetuximab = 0.23; synergy score with BYL719 = -0.192; outcome = active
RPS6KA4 #2: synergy score with trametinib = 0.253; synergy score with cetuximab = 0.116; synergy score with BYL719 = -0.138; outcome = active
RPS6KA4 #3: synergy score with trametinib = 0.0267; synergy score with cetuximab = -0.216; synergy score with BYL719 = -0.233; outcome = inactive
RPS6KA4 #4: synergy score with trametinib = 0.0325; synergy score with cetuximab = -0.0348; synergy score with BYL719 = -0.0829; outcome = inactive

Ordered by “synergy score with trametinib” (high to low): some entries from above.
RPS6KA4 #2: synergy score with trametinib = 0.253; synergy score with cetuximab = 0.116; synergy score with BYL719 = -0.138; outcome = active
RPS6KA4 #3: synergy score with trametinib = 0.0267; synergy score with cetuximab = -0.216; synergy score with BYL719 = -0.233; outcome = inactive
